For three substances, binding results are on record in paper PMC7083216.

Chains of the proteins cited; added tags and fusions are not shown. Lines headed by an entry give the natural chain unless they say otherwise; changes in a name come on top.
UniProt P14416: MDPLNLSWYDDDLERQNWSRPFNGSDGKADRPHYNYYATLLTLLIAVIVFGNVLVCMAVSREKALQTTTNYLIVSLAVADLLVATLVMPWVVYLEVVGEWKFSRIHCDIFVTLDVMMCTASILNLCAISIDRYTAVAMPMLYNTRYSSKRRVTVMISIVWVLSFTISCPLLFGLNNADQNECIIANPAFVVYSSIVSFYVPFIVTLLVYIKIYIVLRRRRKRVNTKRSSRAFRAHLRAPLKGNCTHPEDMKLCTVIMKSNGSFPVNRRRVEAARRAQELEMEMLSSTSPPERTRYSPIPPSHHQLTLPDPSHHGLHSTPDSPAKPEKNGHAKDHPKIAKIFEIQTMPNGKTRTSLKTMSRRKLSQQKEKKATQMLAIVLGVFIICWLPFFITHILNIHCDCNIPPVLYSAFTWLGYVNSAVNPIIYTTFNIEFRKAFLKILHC

No constants are given. Whether binding was seen depends on the method and setting. In cells and extracts the contact can be indirect. Some binding calls cover weakened binding; strength is not graded here.

One experiment deals with M1R-LgBiT (human) (UniProt P11229). Kind of experiment: split reporter; NanoBiT in HEK293T cell suspensions in HBSS; 200 ng of each construct; furimazine; luminescence normalised to co-transfected Venus fluorescence; 48 h after transfection.
For the next experiment, the target named is M1R-YFP (UniProt P11229). Kind of experiment: FRET or BRET; BRET1 saturation in HEK293T cell suspensions in HBSS; constant pD2R-Rluc (200 ng), increasing pM1R-YFP or pEYFP (0-1,000 ng); 5 uM h-coelenterazine; 48 h after transfection. On the technique in general: BRET reads energy transfer from a luciferase to a nearby fluorophore.
For experiment [1], the target named is HA-M1R (muscarinic acetylcholine M1 receptor) (UniProt P11229). In words: co-IP; HEK293T co-transfected with pFLAG-D2R and pHA-M1R, 48 h; membrane pellet lysed in RIPA buffer; immunoprecipitation with mouse anti-HA and Protein-A resin at 4°C; blot with rabbit anti-FLAG.
Experiment [2] shares this target. Kind of experiment: condition: only extracts of separately transfected cells mixed; co-IP; extract mix of HEK293T cells transfected separately with FLAG-D2R or HA-M1R; immunoprecipitation with anti-HA; blot with anti-FLAG.

“D2R-SmBiT (from UniProt P14416 1-443) (receptor)”: the binding entry with M1R-LgBiT (human) was “binds”. On to “D2R-Rluc (from UniProt P14416 1-443) (receptor)”, for which the binding entry with M1R-YFP is reported as “binds”. Take “FLAG-D2R (dopamine D2 receptor) (from UniProt P14416 1-443)”: the binding result in experiment [1] is given as “binds”; in experiment [2], “no binding”.
